In US20130102631A1, “NOVEL MICROBIOCIDAL DIOXIME ETHER DERIVATIVES” (SYNGENTA CROP PROTECTION LLC, priority 2010, published 2013):
Some of these results come from one statement about several compounds together.

test system: Plasmopara viticola; test: Plasmopara viticola / grape / leaf disc preventative; type: in vivo; details: grape vine leaf disks, 200 ppm, inoculated 1 day after application, assessed 6-8 days after application

SMILES	control of Plasmopara viticola
C/C(=N\OCC(C)(C)CO/N=C1\CCCc2c1nc1ccccc1c2C)c1cc(C)cc(C)n1 [Compound 2.561]	at least 80%
C/C(=N\OCC1(CO/N=C2\CCCc3c2nc2ccccc2c3C)CC1)c1cc(C)cc(C)n1 [Compound 5.561]	at least 80%
Cc1cccc(/C(=N/OCC(C)(C)CO/N=C2\CCCc3ccc(C)nc32)c2ccccc2)n1 [E/E-2.474]	at least 80%

test system: Alternaria solani; test: Alternaria solani / tomato / leaf disc (early blight); type: in vivo; details: tomato leaf disks cv Baby, 200 ppm, inoculated 2 days after application, assessed 5-7 days after application

SMILES	control of Alternaria solani
C/C(=N\OCC1(CO/N=C2\CCCc3c2nc2ccccc2c3C)CC1)c1cc(C)cc(C)n1 [Compound 5.561]	at least 80%
C/C(=N\OCC(C)(C)CO/N=C1\CCCc2ccc(C)nc21)c1cccc(C)n1 [E/E-2.002]	at least 80%
C/C(=N\OCC(C)(C)CO/N=C1\CCCc2ccc(C)nc21)c1cc(C)cc(C)n1 [E/E-2.168]	at least 80%
Cc1cccc(/C(=N/OCC(C)(C)CO/N=C2\CCCc3ccc(C)nc32)c2ccccc2)n1 [E/E-2.474]	at least 80%
C/C(=N\OCC1(CO/N=C2\CCCc3ccc(C)nc32)CC1)c1cc(C)cc(C)n1 [E/E-5.167]	at least 80%

test system: Pythium ultimum; test: Pythium ultimum / liquid culture (seedling damping off); type: cell-based; details: at ≦200 ppm, liquid culture PDB, inhibition of growth photometrically 2-3 days after application

SMILES	control of Pythium ultimum
Cc1ccc2c(n1)/C(=N/OCC(C)(C)CO/N=C/c1cccc(CO)n1)CCC2 [Compound 2.528]	at least 80%
C/C(=N\OCC(C)(C)CO/N=C1\CCCc2ccc(C#CCO)nc21)c1cc(C)cc(C)n1 [Compound 2.558]	at least 80%
C/C(=N\OCC(C)(C)CO/N=C1\CCCc2ccc(C)nc21)c1cccc(C)n1 [E/E-2.002]	at least 80%
C/C(=N\OCC(C)(C)CO/N=C1\CCCc2ccc(C)nc21)c1cc(C)cc(C)n1 [E/E-2.168]	at least 80%
C/C(=N\OCC1(CO/N=C2\CCCc3ccc(C)nc32)CC1)c1cc(C)cc(C)n1 [E/E-5.167]	at least 80%

test system: Botryotinia fuckeliana (Botrytis cinerea); test: Botryotinia fuckeliana (Botrytis cinerea) / liquid culture (gray mould); type: cell-based; details: at ≦200 ppm, liquid culture Vogels broth, inhibition of growth photometrically 3-4 days after application

SMILES	control of Botryotinia fuckeliana
CC/C(=N/OCC(C)(C)CO/N=C1\CCCc2ccc(C)nc21)c1ncc(Cl)cc1F (single isomer, unassigned) [2.525 (fraction B)]	at least 80%
C/C(=N\OCC(C)(C)CO/N=C1\CCCc2ccc(C)nc21)c1ncc(C(F)(F)F)cc1Cl (single isomer, unassigned) [2.551 (fraction A)]	at least 80%
COc1cccc(/C(C)=N/OCC(C)(C)CO/N=C2\CCCc3ccc(C)nc32)n1 [Compound 2.374]	at least 80%
Cc1ccc2c(n1)/C(=N/OCC(C)(C)CO/N=C(\c1ccccc1)c1ccccn1)CCC2 [Compound 2.510]	at least 80%
C/C(=N\OCC(C)(C)CO/N=C1\CCCc2ccc(C)nc21)c1ccc2ccccc2n1 [Compound 2.512]	at least 80%
C/C(=N\OCC(C)(C)CO/N=C1\CCCc2ccc(C)nc21)c1ccc2c(n1)CCCC2 [Compound 2.513]	at least 80%
C/C(=N\OCCCO/N=C1\CCCc2ccc(C)nc21)c1cccc(-c2ccccc2)n1 [Compound 2.514]	at least 80%
CC/C(=N\OCC(C)(C)CO/N=C1\CCCc2ccc(C)nc21)c1ccccn1 [Compound 2.516]	at least 80%
COC(=O)C/C(=N/OCC(C)(C)CO/N=C1\CCCc2ccc(C)nc21)c1ncc(Cl)cc1F [Compound 2.518]	at least 80%
C/C(=N/OCC(C)(C)CO/N=C1\CCCc2ccc(C)nc21)c1ccccn1 [Compound 2.519]	at least 80%
Cc1ccc2c(n1)/C(=N/OCC(C)(C)CO/N=C(/c1ccccn1)c1ncc(C(F)(F)F)cc1Cl)CCC2 [Compound 2.520]	at least 80%
CC/C(=N/OCC(C)(C)CO/N=C1\CCCc2ccc(C)nc21)c1ccc(C(F)(F)F)cn1 [Compound 2.524]	at least 80%
CCOC(=O)c1ccc(C)c(/C(C)=N/OCC(C)(C)CO/N=C2\CCCc3ccc(C)nc32)n1 [Compound 2.526]	at least 80%
Cc1ccc2c(n1)/C(=N/OCC(C)(C)CO/N=C/c1cccc(CO)n1)CCC2 [Compound 2.528]	at least 80%
Cc1ccc2c(n1)/C(=N/OCC(C)(C)CO/N=C/c1cccc(Oc3ccccc3)n1)CCC2 [Compound 2.530]	at least 80%
C/C(=N\OCC(C)(C)CO/N=C1\CCCc2ccc(C)nc21)c1cc(C#N)ccn1 [Compound 2.531]	at least 80%
Cc1ccc2c(n1)/C(=N/OCC(C)(C)CO/N=C(\c1ccc(Cl)cc1)c1ccccn1)CCC2 [Compound 2.532]	at least 80%
Cc1ccc(O)c(/C=N/OCC(C)(C)CO/N=C2\CCCc3ccc(C)nc32)n1 [Compound 2.533]	at least 80%
CSc1nc(/C=N/OCC(C)(C)CO/N=C2\CCCc3ccc(C)nc32)ccc1C#N [Compound 2.535]	at least 80%
C/C(=N\OCC(C)(C)CO/N=C1\CCCc2ccc(C)nc21)c1cccc(C#N)n1 [Compound 2.536]	at least 80%
Cc1ccc2c(n1)/C(=N/OCC(C)(C)CO/N=C(\c1ccncc1)c1ccccn1)CCC2 [Compound 2.537]	at least 80%
Cc1ccc2c(n1)/C(=N/OCC(C)(C)CO/N=C(/c1cccc(Br)n1)c1ccccc1C)CCC2 [Compound 2.539]	at least 80%
COC(=O)c1ccc(C(F)(F)F)nc1/C(C)=N/OCC(C)(C)CO/N=C1\CCCc2ccc(C)nc21 [Compound 2.540]	at least 80%

SMILES	control of Botryotinia fuckeliana
C/C(=N\OCC(C)(C)CO/N=C1\CCCc2ccc(C)nc21)c1cc(C(C)(C)C)ccn1 [Compound 2.541]	at least 80%
Cc1ccc2c(n1)/C(=N/OCC(C)(C)CO/N=C(/c1ncc(Cl)cc1Cl)C(C)C)CCC2 [Compound 2.542]	at least 80%
C/C(=N\OCC(C)(C)CO/N=C1\CCCc2ccc(C)nc21)c1cccc(-c2ccccc2Cl)n1 [Compound 2.544]	at least 80%
Cc1ccc2c(n1)/C(=N/OCC(C)(C)CO/N=C(\c1ncc(Cl)cc1F)C(C)Cl)CCC2 (centres unmarked) [Compound 2.545]	at least 80%
C/C(=N\OCC(C)(C)CO/N=C1\CCCc2ccc(C)nc21)c1ncc(Cl)cc1O [Compound 2.548]	at least 80%
Cc1ccc2c(n1)/C(=N/OCC(C)(C)CO/N=C/c1ncc(Cl)cc1F)CCC2 [Compound 2.552]	at least 80%
Cc1ccc2c(n1)/C(=N/OCC(C)(C)CO/N=C/c1ccc(OCc3ccccc3)cn1)CCC2 [Compound 2.553]	at least 80%
C/C(=N\OCC(C)(C)CO/N=C1\CCCc2ccc(Oc3ccccc3)nc21)c1cc(C)cc(C)n1 [Compound 2.556]	at least 80%
Cc1cc(C)nc(C(=NOCCCO/N=C2\CCCc3ccc(C)nc32)c2cc(C)cc(C)n2)c1 [Compound 2.557]	at least 80%
C/C(=N\OCC(C)(C)CO/N=C1\CCCc2ccc(C#CCO)nc21)c1cc(C)cc(C)n1 [Compound 2.558]	at least 80%
C/C(=N\OCC(C)(C)CO/N=C1\CCCc2ccc(-c3cccc(C)n3)nc21)c1cc(C)cc(C)n1 [Compound 2.559]	at least 80%
C/C(=N\OCC(C)(C)CO/N=C1\CCCc2c1nc1ccccc1c2C)c1cc(C)cc(C)n1 [Compound 2.561]	at least 80%
C/C(=N\OCC1(CO/N=C2\CCCc3c2nc2ccccc2c3C)CC1)c1cc(C)cc(C)n1 [Compound 5.561]	at least 80%
C/C(=N\OCC(C)(C)CO/N=C1\CCCc2ccc(C)nc21)c1cccc(C)n1 [E/E-2.002]	at least 80%
C/C(=N\OCC(C)(C)CO/N=C1\CCCc2ccc(C)nc21)c1cc(C)cc(C)n1 [E/E-2.168]	at least 80%
Cc1cccc(/C(=N/OCC(C)(C)CO/N=C2\CCCc3ccc(C)nc32)c2ccccc2)n1 [E/E-2.474]	at least 80%
Cc1ccc2c(n1)/C(=N/OCC(C)(C)CO/N=C/c1ccc3ccccc3n1)CCC2 [E/E-2.507]	at least 80%
C/C(=N\OCC(C)(C)CO/N=C1\CCCc2ccc(C)nc21)c1cccc(Br)n1 [E/E-2.508]	at least 80%
C/C(=N\OCC(C)(C)CO/N=C1\CCCc2ccc(C)nc21)c1ncc(Cl)cc1F [E/E-2.509]	at least 80%
C=C(CO/N=C(\C)c1cccc(C)n1)CO/N=C1\CCCc2ccc(C)nc21 [E/E-3.002]	at least 80%
C/C(=N\OCC1(CO/N=C2\CCCc3ccc(C)nc32)CC1)c1cc(C)cc(C)n1 [E/E-5.167]	at least 80%
C/C(=N\OCC(C)(O)CO/N=C1\CCCc2ccc(C)nc21)c1cccc(C)n1 (centres unmarked) [E/E-14.002]	at least 80%
Cc1cccc(/C(=N\OCC(C)(C)CO/N=C2\CCCc3ccc(C)nc32)c2ccccc2)n1 [Z/E-2.474]	at least 80%
